Laboratory results reported in PubChem BioAssay (NCATS).
This is one part of the list. These are further read-outs of the screen, such as a control signal, another cell line or another target. No call is given for them. Most of these compounds were active or inconclusive in the main read-out, so they are no random draw. Words in brackets tell the shape of the fitted curve; partial curves, single points and poor fits give uncertain potencies.

Assay: S16 Schwann cell PMP22 intronic element beta-lactamase assay (AID 624044)
Conditions: S16 rat Schwann cells, PMP22 element beta-lactamase FRET, 24 h; measured here: 530 nm viability channel
Outline: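 Rat S16 Schwann cells with beta-Lac driven by a PMP22 intronic element, compound-treated 24 h at 37 °C. LiveBLAzer FRET B/G read: 460 nm normalized to potassium clavulanate vs DMSO; 535 nm FRET as viability; concentration-effect curves classified.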

Structure (SMILES)	AC50
CCCCCCC(O)C/C=C/CCCCCCCC(=O)O (centres undefined)	1410 nM [falling, full curve, poor fit]
Cc1cc2nc3c(=O)[nH]c(=O)nc-3n(CC(O)C(O)C(O)CO)c2cc1C (centres undefined)	12600 nM [rising, full curve]
CS(=O)(=O)c1ccc([C@H](O)[C@H](CF)NC(=O)C(Cl)Cl)cc1	158 nM [falling, full curve]
O=C(O)CCCc1ccccc1	200 nM [falling, full curve]
